Test results taken from US20240043530A1 (JIANGSU HENGRUI PHARMACEUTICALS, published 2024).
Results are given in words; binding and its absence hold for the method and conditions named. A result given as binding can be weak or reduced; the word gives no strength.

Chains of the proteins cited; added tags and fusions are not shown. Lines headed by an entry give the natural chain unless they say otherwise; changes in a name come on top.
UniProt Q6DKI7: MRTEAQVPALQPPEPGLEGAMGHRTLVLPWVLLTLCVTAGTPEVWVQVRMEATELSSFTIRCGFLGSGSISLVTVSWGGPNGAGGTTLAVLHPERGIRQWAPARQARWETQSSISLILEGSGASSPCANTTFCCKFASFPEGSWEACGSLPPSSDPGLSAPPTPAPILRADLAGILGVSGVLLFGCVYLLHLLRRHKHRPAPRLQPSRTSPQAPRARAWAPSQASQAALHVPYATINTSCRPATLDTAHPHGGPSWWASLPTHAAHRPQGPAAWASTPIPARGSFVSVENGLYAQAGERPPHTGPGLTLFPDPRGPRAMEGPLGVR

What was measured:
[1] = target: human PVRIG expressed on the cell surface (human) (UniProt Q6DKI7); assay: flow cytometry on cells overexpressing human PVRIG, labelled anti-human IgG (method of Example 5)
[2] = target: his-tagged human PVRIG recombinant protein (human) (UniProt Q6DKI7); assay: BLI (Fortebio), antibody on Protein A sensor
[3] = target: his-tagged human PVRIG recombinant protein (human) (UniProt Q6DKI7); assay: ELISA, plate coated with human PVRIG recombinant protein, HRP anti-human IgG, OD450 (method of Example 4)

Measured: binding

B1: positive antibody Tab5 (antibody, human IgG4 S228P, kappa, F234A L235A, V domains shown)
VH: EVQLVESGGGVVKPGGSLRLSCAASGFTFGTSSMNWVRQAPGKGLEWVAVISFDGTEIHYADSVKGRFTISRDNSKSTVFLQMNSLRPDDTALYYCAKGSGNIYFYSGMDVWGQGTTVTVSS
VL: DIQMTQSPSTLSASVGDRVTITCRAGQSISGWLAWFQQKPGKAPNLLIYETSTLESGVPSRFSGSGSGTEYTLTISSLQPDDFATYYCQQYYSYPLTFGQGTKVEIKR
binds: all assays above
